Consider 36 molecules from the supplement of paper PMC9135407.

Several values for one entry are separate records, joined by “and”; a condition that tells them apart may be missing. Equal values may be shown once. Where a name gives a salt, the structure may show the parent alone. ± gives the standard deviation of the averaged measurements. The list shows a part of the results. Plates or batches differ in their baseline, so values are only roughly comparable.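 Culture-activated primary human stellate myofibroblasts, where regained lipid droplets signal inactivation. Value: share of Hoechst-counted cells above a per-plate Bodipy cutoff, in duplicate wells, with DMSO negative and nortriptyline positive controls on each plate. Hits: a control-normalized score above the plate's top-tenth-percentile nortriptyline wells, or one of a plate's three best wells. Final well concentrations are not given.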

In this assay the test system is primary human hepatic stellate cells (donor 1). The assay can be described thus: percent Bodipy-positive cells; higher = more lipid droplet accumulation. Particulars: 48 h.
Where [1] appears, read: library stock concentration: 3.33 mM.
Setting [2] is: library stock concentration: 10 mM.
[3] abbreviates: library stock concentration: 80 uM.
[4] abbreviates: library stock concentration: 400 uM.
Setting [5] is: library stock concentration: 2 mM.
[6] abbreviates: library stock concentration: 1 mM.

For `Cn1cncc1[C@@](N)(c1ccc(Cl)cc1)c1ccc2c(c1)c(-c1cccc(Cl)c1)cc(=O)n2C` [Tipifarnib], the “percent Bodipy-positive cells” value was found to be 8.56 ± 2.1% under setting [1] and 47.1 ± 10% under setting [2].
In the case of `Cc1nnc(SCC2=C(C(=O)O)N3C(=O)[C@@H](NC(=O)Cn4cnnn4)[C@H]3SC2)s1` [Cefazolin sodium], the “percent Bodipy-positive cells” value under setting [2] is 12.6% and 37.2%.
The same measure, in the same setting: the same measure for `Cc1nnc(SCC2=C(C(=O)O)N3C(=O)[C@@H](NC(=O)Cn4cnnn4)[C@H]3SC2)s1` [Cefazolin?Sodium]: 29.4 ± 2%.
Turning to `Cc1nnc(SCC2=C(C(=O)O)N3C(=O)[C@@H](NC(=O)Cn4cnnn4)[C@H]3SC2)s1` [Cefazolin sodium salt], the “percent Bodipy-positive cells” value stood at 10.1 ± 2.2%.
Regarding `Cc1cc(C#N)cc(C)c1Oc1nc(Nc2ccc(C#N)cc2)nc(N)c1Br` [Etravirine (TMC125)], the “percent Bodipy-positive cells” value is, setting by setting: under setting [1], 16.1 ± 4.8%; under setting [2], 74.1 ± 6.5%.
Turning to `C=CC(=O)Nc1cc(-n2c(=O)ccc3cnc4ccc(-c5cn[nH]c5)cc4c32)ccc1C`, the “percent Bodipy-positive cells” value worked out at 14.5 ± 2.4% under setting [3], 7.18 ± 1.1% under setting [4], 22.3 ± 5.7% under setting [5] and 76.7 ± 20% under setting [2].
Regarding `Nc1nc2c(ncn2[C@@H]2O[C@H](CO)[C@@H](O)[C@@H]2O)c(=O)[nH]1` [Ara-G hydrate], under setting [2], the “percent Bodipy-positive cells” value came to 17.04 ± 0.097%.
`O=c1[nH]c(=O)n([C@H]2C[C@H](O)[C@@H](CO)O2)cc1C(F)(F)F` [Trifluridine]: the “percent Bodipy-positive cells” value came out at 9.54 ± 4.1%. In addition, under setting [1], the “percent Bodipy-positive cells” value is 20.8 ± 6%. The “percent Bodipy-positive cells” value (library stock concentration: 6.8 mM) came out at 14.7 ± 0.95%. Further, under setting [2], the “percent Bodipy-positive cells” value is 21.8% and 44%.
For the molecule `COc1ccc2c3c1O[C@H]1C[C@@H](O)C=C[C@@]31CCN(C)C2` [Galanthamine HBr], the “percent Bodipy-positive cells” value (library stock concentration: 7 mM) was 9.06 ± 3.6%.
On to `COc1ccc2c3c1O[C@H]1C[C@@H](O)C=C[C@@]31CCN(C)C2` [Galanthamine hydrobromide], for which the “percent Bodipy-positive cells” value was 31.9 ± 0.44%. The “percent Bodipy-positive cells” value (library stock concentration: 5.4 mM) came to 13.8 ± 1.1%. Further, the “percent Bodipy-positive cells” value under setting [2] was 19.7% and 6.46%.
In the case of `COc1ccc2c3c1O[C@H]1C[C@@H](O)C=C[C@@]31CCN(C)C2` [Galanthamine], under setting [2], the “percent Bodipy-positive cells” value came out at 11.4 ± 3.9%.
As for `Cc1cc(F)c(Nc2ncnc3cc(OCc4ccccc4)ccc23)cc1O`, the “percent Bodipy-positive cells” value by setting is: under setting [1], 17.2 ± 2.5%; under setting [2], 45.2% and 20.6%.
Turning to `CCCCC1(C2CCCC2)Cc2cc(OCC(=O)O)c(Cl)c(Cl)c2C1=O` (stereo in doubt) [R(+)-Butylindazone], the “percent Bodipy-positive cells” value under setting [2] was 29.3 ± 3.5%.
In the case of `CC1(C)S[C@@H]2[C@H](NC(=O)COc3ccccc3)C(=O)N2[C@H]1C(=O)O` [Penicillin v potassium], the “percent Bodipy-positive cells” value reads like this: (library stock concentration: 5.1 mM) 2.37 ± 0.67%; under setting [2], 15.9 ± 0.67%.
`CC1(C)S[C@@H]2[C@H](NC(=O)COc3ccccc3)C(=O)N2[C@H]1C(=O)O` [Penicillin V]: under setting [2], the “percent Bodipy-positive cells” value was 33.4 ± 4.8%.
On the same count and under the same terms, the same measure for `CCCC(=O)O[C@]1(C(=O)CO)CC[C@H]2[C@@H]3CCC4=CC(=O)CC[C@]4(C)[C@H]3[C@@H](O)C[C@@]21C` [Hydrocortisone butyrate]: 20.3 ± 2.7%.
As to `CC(C)NC(=N)NC(=N)Nc1ccc(Cl)cc1` [Chloroguanide hydrochloride], the “percent Bodipy-positive cells” value (library stock concentration: 6.9 mM) worked out at 19.1 ± 4.7%.
For the molecule `CC(C)NC(=N)NC(=N)Nc1ccc(Cl)cc1` [Proguanil hydrochloride], the “percent Bodipy-positive cells” value amounted to 21.7 ± 2.4%.
As for `CC(C)n1cnc2c(NCCc3ccc(O)cc3)nc(-c3csc4ccccc34)nc21` [StemRegenin 1 (SR1)], under setting [1], the “percent Bodipy-positive cells” value was determined as 8.14 ± 1.1%.
`O=C(NNc1ccccc1)c1ccncc1`: the “percent Bodipy-positive cells” value came out at 26.89 ± 0.081% under setting [1] and 29.8 ± 7.1% under setting [2].
In the case of `Cc1nc2c(O)cccc2c(=O)[nH]1`, under setting [2], the “percent Bodipy-positive cells” value was 7.04 ± 2.4%.
Still for that read-out and setting: the same measure for `CCCCc1nc2ccn(Cc3cccs3)c(=O)c2n1Cc1ccc(-c2ccccc2-c2nn[nH]n2)cc1`: 7.81 ± 0.98%.
Still for that read-out and setting: to `O=C1OC(=O)[C@H]2[C@@H]1[C@@H]1CC[C@H]2O1` [Norcantharidin] belongs 61.6 ± 1.3%; to `CN(C)CC[C@@H](c1ccc(Br)cc1)c1ccccn1`, 40.8 ± 16%.
As for `O=P(O)(O)OC1[C@@H](O)[C@H](O)C(O)[C@H](O)[C@@H]1O` (stereo partly drawn) [D-myo-Inositol-3-phosphate (sodium salt)], the “percent Bodipy-positive cells” value under setting [6] was determined as 6.93 ± 1.5%.
For `NCCCCN` [Putrescine dihydrochloride], the “percent Bodipy-positive cells” value under setting [2] came out at 12.3 ± 1.1%.
For the molecule `CN(C)CCOc1cc(-c2cn[nH]c2)ccc1NC(=O)C1COc2ccccc2O1` (stereo not given), the “percent Bodipy-positive cells” value reads like this: under setting [4], 22.9 ± 7%; under setting [5], 48 ± 11%.
`CN(Cc1ccc(C(C)(C)C)cc1)Cc1cccc2ccccc12` [Butenafine]: where the note is “library stock concentration: 6.3 mM”, the “percent Bodipy-positive cells” value worked out at 9.86 ± 1.3%.
On to `CN(Cc1ccc(C(C)(C)C)cc1)Cc1cccc2ccccc12` [Butenafine HCl], for which the “percent Bodipy-positive cells” value runs as follows: under setting [1], 13.3 ± 7.3%; under setting [2], 39.1 ± 1.8%.
Take `N=C(CC(O)COc1ccccc1-c1ccccc1)N1CCCCC1` (stereo not given): the “percent Bodipy-positive cells” value under setting [2] was determined as 53.9 ± 6.2%.
Turning to `O=C(NCCCNc1nc(Nc2cccc(NC(=O)N3CCCC3)c2)ncc1I)c1cccs1`, the “percent Bodipy-positive cells” value under setting [3] worked out at 10.9 ± 3.4%; the “percent Bodipy-positive cells” value under setting [4] is 8.06% and 26%; the “percent Bodipy-positive cells” value under setting [1] was 21.7 ± 10%.
Take `CN1CC[C@@H](c2c(O)cc(O)c3c(=O)cc(-c4ccccc4Cl)oc23)[C@@H]1CO`: the “percent Bodipy-positive cells” value under setting [1] turned out to be 64.3 ± 1.1% and the “percent Bodipy-positive cells” value under setting [2] worked out at 69.9 ± 5.9%.
As to `Cc1cccc(-c2[nH]ncc2-c2ccc3ncccc3n2)n1`, the “percent Bodipy-positive cells” value is, setting by setting: under setting [1], 43.1 ± 6.1%; under setting [2], 51.6% and 69%.
On to `O=C(O)CCC/C=C\C[C@H]1[C@@H](/C=C/[C@@H](O)CCc2ccccc2)[C@H](O)C[C@@H]1O` [8-iso-17-phenyl trinor Prostaglandin F2.alpha.], for which the “percent Bodipy-positive cells” value under setting [6] came to 14.6 ± 13%.
As to `Cn1cc(C2=C(c3ccc(Cl)cc3Cl)C(=O)NC2=O)c2ccccc21`, the “percent Bodipy-positive cells” value under setting [2] came to 99.82 ± 0.26%.
With `CCCOc1ccc(Br)cc1-c1cc(-c2ccc(Cl)cc2)[nH]c1-c1ccncc1`, under setting [2], the “percent Bodipy-positive cells” value came out at 9.15 ± 1.2%.
